In the supplement of paper PMC10849652:
The other results are listed elsewhere or left out.

Chains of the proteins cited; added tags and fusions are not shown. Lines headed by an entry give the natural chain unless they say otherwise; changes in a name come on top.
UniProt Q6P582, whole entry, looked up: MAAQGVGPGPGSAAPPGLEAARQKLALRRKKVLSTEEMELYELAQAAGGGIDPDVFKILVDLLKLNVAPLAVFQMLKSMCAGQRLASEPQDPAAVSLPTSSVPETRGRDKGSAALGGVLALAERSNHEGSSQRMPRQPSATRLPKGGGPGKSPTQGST
UniProt O95139, whole entry, looked up: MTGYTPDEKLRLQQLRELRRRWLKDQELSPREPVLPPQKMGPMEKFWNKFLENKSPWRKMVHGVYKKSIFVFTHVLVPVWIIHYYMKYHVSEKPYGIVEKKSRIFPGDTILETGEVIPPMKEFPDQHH
UniProt Q5TEU4: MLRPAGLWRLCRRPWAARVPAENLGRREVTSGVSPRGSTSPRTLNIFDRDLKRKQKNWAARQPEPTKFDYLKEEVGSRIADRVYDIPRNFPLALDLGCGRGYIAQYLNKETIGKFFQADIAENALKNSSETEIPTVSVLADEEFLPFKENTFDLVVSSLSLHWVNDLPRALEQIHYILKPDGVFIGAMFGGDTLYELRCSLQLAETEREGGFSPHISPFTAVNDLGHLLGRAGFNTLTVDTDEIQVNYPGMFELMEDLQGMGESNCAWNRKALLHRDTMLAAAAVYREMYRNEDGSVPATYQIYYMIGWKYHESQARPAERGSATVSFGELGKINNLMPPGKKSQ
UniProt O43920, whole entry, looked up: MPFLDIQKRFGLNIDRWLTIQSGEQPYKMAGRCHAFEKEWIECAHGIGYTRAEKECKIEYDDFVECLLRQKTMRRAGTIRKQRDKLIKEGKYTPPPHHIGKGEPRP
UniProt P41227: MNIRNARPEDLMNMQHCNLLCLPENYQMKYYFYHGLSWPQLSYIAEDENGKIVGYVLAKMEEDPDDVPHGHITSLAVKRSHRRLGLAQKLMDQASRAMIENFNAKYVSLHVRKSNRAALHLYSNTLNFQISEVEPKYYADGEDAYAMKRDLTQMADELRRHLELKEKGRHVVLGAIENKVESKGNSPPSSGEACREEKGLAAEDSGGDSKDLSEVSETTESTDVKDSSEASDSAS
UniProt O43678, whole entry, looked up: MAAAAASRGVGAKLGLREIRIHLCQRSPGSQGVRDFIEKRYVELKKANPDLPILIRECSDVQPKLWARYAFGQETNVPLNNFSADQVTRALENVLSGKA
UniProt O75376, whole entry, looked up: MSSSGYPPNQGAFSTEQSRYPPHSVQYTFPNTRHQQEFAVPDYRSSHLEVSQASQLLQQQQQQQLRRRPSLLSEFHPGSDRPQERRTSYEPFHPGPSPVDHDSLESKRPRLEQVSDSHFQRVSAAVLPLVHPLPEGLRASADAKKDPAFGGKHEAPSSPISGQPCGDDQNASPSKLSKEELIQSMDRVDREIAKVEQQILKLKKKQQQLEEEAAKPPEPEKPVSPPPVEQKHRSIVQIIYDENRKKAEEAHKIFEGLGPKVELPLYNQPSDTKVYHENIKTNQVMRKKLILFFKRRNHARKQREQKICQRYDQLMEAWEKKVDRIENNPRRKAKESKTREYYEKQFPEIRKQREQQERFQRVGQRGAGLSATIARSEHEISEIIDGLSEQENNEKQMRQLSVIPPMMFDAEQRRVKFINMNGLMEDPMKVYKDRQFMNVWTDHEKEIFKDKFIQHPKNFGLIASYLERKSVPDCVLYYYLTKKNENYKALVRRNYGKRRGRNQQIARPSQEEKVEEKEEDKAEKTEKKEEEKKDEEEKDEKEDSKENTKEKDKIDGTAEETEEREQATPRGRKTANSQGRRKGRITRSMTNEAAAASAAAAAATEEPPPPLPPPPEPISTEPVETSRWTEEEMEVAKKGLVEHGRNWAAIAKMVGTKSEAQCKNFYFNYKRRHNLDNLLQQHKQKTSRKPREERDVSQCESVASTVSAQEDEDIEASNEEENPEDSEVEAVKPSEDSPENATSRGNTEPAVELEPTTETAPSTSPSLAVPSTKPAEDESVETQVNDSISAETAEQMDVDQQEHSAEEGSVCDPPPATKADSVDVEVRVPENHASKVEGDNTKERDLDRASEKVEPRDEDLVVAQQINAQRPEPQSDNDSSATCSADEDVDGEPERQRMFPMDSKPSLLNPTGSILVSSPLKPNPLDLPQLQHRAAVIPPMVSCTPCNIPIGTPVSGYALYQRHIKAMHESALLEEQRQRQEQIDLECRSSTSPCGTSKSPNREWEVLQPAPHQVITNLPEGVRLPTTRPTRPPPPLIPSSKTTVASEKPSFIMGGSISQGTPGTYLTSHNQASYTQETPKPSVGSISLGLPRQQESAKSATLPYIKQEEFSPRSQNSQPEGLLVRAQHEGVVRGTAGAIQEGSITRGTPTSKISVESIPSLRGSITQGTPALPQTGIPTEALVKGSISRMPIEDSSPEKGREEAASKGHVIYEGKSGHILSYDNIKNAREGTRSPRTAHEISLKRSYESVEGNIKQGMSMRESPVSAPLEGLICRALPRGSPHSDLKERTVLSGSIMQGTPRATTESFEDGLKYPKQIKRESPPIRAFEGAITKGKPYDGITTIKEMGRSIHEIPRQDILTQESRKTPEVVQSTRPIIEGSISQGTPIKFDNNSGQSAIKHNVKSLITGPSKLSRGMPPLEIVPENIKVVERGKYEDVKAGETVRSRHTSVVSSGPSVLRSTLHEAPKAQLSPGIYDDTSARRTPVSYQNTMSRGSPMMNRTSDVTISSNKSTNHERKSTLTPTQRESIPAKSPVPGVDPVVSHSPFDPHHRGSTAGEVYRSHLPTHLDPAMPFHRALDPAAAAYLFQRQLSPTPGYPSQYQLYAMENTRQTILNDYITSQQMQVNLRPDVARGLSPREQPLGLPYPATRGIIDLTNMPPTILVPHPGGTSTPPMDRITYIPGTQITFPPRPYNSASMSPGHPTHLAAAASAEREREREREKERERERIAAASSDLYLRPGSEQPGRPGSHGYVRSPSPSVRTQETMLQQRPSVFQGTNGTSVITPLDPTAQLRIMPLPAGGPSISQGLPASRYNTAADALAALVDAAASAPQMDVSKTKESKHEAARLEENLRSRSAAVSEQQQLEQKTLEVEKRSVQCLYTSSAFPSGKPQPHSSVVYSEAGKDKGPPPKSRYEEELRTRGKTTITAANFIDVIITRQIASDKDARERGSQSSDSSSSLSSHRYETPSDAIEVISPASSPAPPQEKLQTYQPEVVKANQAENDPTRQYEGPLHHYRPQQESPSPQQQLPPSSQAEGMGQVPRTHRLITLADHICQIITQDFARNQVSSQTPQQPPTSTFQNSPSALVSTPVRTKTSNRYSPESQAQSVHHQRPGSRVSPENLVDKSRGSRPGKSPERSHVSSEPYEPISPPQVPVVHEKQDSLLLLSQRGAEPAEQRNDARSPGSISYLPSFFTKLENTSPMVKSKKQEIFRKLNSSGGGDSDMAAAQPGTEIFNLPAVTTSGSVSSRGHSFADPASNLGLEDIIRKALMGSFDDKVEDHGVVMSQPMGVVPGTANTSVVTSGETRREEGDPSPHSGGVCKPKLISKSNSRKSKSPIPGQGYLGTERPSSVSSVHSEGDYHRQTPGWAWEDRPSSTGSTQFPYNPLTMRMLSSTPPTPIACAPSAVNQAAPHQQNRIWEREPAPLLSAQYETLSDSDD
UniProt Q6XQN6: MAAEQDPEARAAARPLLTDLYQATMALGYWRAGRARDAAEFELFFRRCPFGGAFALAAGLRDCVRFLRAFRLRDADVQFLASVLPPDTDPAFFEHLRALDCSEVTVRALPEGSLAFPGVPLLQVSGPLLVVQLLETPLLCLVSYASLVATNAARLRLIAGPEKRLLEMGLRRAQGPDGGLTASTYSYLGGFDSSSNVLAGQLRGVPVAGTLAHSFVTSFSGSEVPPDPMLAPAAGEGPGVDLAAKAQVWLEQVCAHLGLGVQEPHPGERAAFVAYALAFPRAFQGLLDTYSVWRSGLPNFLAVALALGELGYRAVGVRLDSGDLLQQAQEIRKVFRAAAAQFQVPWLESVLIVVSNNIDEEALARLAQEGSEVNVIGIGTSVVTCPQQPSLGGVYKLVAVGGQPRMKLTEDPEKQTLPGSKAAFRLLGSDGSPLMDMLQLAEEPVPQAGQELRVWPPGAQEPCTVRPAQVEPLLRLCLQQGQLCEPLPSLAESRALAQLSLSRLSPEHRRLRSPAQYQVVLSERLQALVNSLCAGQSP
UniProt O95182, whole entry, looked up: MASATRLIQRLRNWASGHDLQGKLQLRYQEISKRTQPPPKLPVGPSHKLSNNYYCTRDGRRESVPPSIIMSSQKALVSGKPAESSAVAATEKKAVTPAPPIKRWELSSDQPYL
UniProt Q15021, whole entry, looked up: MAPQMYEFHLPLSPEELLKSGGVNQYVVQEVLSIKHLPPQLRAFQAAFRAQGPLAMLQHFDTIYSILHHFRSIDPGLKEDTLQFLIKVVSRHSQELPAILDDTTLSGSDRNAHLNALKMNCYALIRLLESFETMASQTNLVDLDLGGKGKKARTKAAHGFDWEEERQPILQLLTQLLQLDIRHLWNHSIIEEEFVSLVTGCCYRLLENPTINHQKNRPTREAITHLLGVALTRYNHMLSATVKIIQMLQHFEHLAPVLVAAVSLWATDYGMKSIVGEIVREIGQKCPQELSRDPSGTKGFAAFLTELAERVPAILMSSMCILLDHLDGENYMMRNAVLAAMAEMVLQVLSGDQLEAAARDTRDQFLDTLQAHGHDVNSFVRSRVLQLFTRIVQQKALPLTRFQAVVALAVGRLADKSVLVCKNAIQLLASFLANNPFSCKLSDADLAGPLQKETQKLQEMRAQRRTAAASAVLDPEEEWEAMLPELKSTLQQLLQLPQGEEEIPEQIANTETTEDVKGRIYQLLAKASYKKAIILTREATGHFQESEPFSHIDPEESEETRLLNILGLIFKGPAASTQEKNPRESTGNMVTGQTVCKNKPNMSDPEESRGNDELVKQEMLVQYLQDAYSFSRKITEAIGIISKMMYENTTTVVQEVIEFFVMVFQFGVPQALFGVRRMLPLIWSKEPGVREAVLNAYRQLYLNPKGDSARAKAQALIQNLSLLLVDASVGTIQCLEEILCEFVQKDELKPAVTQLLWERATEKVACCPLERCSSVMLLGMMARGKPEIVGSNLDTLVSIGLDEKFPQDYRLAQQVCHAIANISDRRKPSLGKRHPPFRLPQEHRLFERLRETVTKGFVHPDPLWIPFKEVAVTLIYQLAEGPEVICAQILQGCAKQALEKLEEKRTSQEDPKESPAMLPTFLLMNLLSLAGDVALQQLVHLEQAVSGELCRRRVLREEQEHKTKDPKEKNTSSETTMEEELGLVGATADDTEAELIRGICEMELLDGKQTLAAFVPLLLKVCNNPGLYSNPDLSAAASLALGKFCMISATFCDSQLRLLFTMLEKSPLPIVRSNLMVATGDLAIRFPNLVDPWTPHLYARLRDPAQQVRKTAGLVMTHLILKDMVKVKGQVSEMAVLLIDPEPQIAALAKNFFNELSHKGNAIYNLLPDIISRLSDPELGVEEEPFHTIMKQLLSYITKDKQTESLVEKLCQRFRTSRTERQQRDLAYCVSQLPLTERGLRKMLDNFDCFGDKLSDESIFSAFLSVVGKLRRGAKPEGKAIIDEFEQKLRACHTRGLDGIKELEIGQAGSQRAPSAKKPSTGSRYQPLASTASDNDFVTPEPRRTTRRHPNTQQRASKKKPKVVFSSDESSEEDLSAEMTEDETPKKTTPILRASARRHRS
UniProt Q8N183: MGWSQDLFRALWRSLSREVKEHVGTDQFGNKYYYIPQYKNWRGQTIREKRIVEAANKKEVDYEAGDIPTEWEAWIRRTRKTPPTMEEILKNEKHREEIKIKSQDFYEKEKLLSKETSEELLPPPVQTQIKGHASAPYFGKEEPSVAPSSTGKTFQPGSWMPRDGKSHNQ
UniProt Q86Y39, whole entry, looked up: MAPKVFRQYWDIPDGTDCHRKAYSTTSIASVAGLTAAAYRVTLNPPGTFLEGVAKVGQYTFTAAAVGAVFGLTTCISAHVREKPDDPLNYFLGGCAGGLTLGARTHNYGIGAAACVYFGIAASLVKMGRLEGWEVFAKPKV
UniProt Q99733: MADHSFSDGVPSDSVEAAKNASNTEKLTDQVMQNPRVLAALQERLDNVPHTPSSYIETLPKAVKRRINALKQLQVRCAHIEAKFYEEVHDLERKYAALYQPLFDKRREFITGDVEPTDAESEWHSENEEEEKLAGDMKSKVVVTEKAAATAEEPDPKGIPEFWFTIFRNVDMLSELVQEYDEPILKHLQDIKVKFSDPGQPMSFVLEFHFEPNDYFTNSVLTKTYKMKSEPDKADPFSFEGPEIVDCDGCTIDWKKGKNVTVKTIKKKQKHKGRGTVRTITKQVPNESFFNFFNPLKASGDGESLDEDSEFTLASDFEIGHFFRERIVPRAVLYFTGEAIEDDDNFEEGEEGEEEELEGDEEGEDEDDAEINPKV
UniProt Q9GZM8: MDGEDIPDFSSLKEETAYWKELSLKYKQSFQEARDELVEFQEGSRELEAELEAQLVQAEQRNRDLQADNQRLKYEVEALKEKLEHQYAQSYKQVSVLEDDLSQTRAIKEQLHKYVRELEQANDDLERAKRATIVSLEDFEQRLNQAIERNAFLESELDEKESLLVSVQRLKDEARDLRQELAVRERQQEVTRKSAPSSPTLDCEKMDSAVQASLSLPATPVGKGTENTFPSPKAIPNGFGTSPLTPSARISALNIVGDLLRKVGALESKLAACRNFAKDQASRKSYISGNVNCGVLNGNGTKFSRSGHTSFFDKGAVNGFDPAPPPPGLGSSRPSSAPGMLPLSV

Compound: Cn1cc(-c2ccc3nnc(C(F)(F)c4ccc5ncccc5c4)n3n2)cn1
Experiment: log2 fold change, soluble protein after heating vs DMSO (PISA); higher = thermal stabilisation; K562 cells, 10 uM, 30 min; active = over 0.2 and 3.5 SD of the protein, either way, in both replicates (recomputed)
Method in brief: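 Soluble protein was quantified by TMTpro 16plex LC-MS/MS after channel sums were equalised. It was obtained as the supernatant after 21,000xg for 90 min from pooled aliquots of K562 cells (2×10^6 cells/mL, 10 μM compound, 30 min) heated for 3 min across 48°C-58°C and extracted in PBS with 0.5% NP-40 at 4°C. Thermal stability values are relative to control samples and come from duplicates. They are given as log2 fold changes.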

log2 fold change, inactive:
NDUFA4 (UniProt O00483) 0.239
MZT2A (UniProt Q6P582) 0.005
NDUFB6 (UniProt O95139) -0.029
NAA30 (UniProt Q147X3) 0.028
NDUFAF5 (UniProt Q5TEU4) 0.181
NEFH (UniProt P12036) -0.084
NCAPG2 isoform 2 (UniProt Q86XI2) -0.021
NDUFS5 (UniProt O43920) -0.016
NAA10 (UniProt P41227) 0.008
NDRG2 (UniProt Q9UN36) 0.002
NADSYN1 (UniProt Q6IA69) 0.008
NCOR2 (UniProt C9J0Q5) 0.292
NAP1L1 (UniProt P55209) -0.039
NECAP1 (UniProt Q8NC96) -0.011
NDUFA2 (UniProt O43678) -0.047
NCOR1 (UniProt O75376) -0.049
NAPRT (UniProt Q6XQN6) 0.048
NA, A0A0B4J2A0 -0.015
N6AMT1 (UniProt Q9Y5N5) 0.079
NDUFA10 (UniProt O95299) 0.037
NEBL isoform 2 (UniProt O76041) 0.018
NDUFA7 (UniProt O95182) -0.061
NAXD (UniProt Q8IW45) -0.04
NARF (UniProt Q9UHQ1) -0.006
NCAPH (UniProt Q15003) 0.019
NCAPD2 (UniProt Q15021) 0.018
NCLN (UniProt Q969V3) 0
NDUFAF2 (UniProt Q8N183) 0.004
NAXE (UniProt Q8NCW5) 0.064
NDUFA11 (UniProt Q86Y39) -0.004
NAP1L4 isoform 2 (UniProt Q99733) 0
NDUFB5 (UniProt O43674) 0.002
NDEL1 isoform 2 (UniProt Q9GZM8) 0.049
NCDN isoform 3 (UniProt Q9UBB6) 0.018

2 records drawn at random from those above:
log2 fold change, inactive:
NCOR2 (UniProt C9J0Q5) 0.292
NAA30 (UniProt Q147X3) 0.028
